Publication PMC6094050, “O-GlcNAcylation Signal Mediates Proteasome Inhibitor Resistance in Cancer Cells by Stabilizing NRF1” (Molecular and Cellular Biology, 2018)
Results are given in words; binding and its absence hold for the method and conditions named. Binding seen in cells or lysates may run through a third protein. Binding can be weak; no strength is given. Where a sequence is shown, tags or fusion partners need not be part of it.

Target: T1, 3×FLAG-mNRF1 ΔbZip (1–592) (mouse) (UniProt Q61985)
T1 sequence: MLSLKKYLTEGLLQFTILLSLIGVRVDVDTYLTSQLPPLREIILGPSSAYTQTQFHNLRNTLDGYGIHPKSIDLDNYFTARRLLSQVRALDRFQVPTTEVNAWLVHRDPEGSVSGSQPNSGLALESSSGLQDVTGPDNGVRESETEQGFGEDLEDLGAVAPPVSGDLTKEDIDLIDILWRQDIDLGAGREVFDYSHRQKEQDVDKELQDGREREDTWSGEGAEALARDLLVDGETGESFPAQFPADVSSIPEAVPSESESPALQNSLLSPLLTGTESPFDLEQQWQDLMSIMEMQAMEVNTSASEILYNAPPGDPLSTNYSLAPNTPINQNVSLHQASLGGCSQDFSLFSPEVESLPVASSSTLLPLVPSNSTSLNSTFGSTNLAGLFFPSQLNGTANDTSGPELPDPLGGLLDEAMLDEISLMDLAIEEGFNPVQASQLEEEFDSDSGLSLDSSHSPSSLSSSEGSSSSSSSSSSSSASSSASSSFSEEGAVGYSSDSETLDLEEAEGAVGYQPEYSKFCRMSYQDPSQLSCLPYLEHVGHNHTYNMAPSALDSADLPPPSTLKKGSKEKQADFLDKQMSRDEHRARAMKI
Experiment: co-IP; soluble nuclear extracts of 293F cells that stably express FLAG-tagged NRF1 or its deletion mutants, precipitated with anti-FLAG antibody; immunoblot for OGT, HCF-1 and FLAG

binding: binds
Substance: host cell factor C1 (HCF-1), endogenous (human (endogenous in 293F and 293T))
